{"sequences": {"note": "Amino acid sequences for entries named in this document (tags omitted). A change or cut given only in a name is not applied to a line headed by its entry.", "UniProt P52333": "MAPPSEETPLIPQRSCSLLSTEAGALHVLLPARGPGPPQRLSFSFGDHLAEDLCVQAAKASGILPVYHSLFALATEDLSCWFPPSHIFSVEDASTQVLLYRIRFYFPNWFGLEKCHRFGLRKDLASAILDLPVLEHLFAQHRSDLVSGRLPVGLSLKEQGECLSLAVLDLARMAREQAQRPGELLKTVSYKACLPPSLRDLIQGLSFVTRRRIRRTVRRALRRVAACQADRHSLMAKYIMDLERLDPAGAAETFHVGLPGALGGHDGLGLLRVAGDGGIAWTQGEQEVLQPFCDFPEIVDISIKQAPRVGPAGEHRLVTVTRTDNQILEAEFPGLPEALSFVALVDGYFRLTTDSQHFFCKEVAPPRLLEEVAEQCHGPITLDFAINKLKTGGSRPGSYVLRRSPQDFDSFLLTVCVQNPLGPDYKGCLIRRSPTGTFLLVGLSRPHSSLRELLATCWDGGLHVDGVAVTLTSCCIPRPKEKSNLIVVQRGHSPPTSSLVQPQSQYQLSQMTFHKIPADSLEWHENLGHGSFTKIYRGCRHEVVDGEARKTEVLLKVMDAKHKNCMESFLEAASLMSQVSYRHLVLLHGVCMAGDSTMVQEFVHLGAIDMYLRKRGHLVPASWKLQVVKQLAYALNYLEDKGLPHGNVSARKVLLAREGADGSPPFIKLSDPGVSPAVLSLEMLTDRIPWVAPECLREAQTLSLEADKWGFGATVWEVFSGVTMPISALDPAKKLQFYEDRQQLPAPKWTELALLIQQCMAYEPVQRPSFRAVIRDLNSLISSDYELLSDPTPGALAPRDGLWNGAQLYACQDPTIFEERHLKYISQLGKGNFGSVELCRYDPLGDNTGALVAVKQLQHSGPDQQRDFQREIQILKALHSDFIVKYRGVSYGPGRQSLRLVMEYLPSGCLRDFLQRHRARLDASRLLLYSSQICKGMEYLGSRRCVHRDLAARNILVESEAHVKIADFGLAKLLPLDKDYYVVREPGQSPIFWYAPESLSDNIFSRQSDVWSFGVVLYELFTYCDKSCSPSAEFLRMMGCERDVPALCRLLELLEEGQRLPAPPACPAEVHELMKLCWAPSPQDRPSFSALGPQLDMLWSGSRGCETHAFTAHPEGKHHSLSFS"}, "source": "patent US8592415B2", "about": "“Selective kinase inhibitors” (Reaction Biology Corp., priority 2009, dated 2013)", "origin": "cited, not measured here", "molecular_target": "JAK3 (Homo sapiens (Human), UniProt P52333)", "conditions": "cited from earlier work"}
{"smiles": "COc1cc2ncnc(Nc3ccc(O)c(Br)c3)c2cc1OC", "note": "[WHI-P-154]", "values": [{"measurement": "JAK3 IC50s", "result": "low μM ranges"}]}
